The values that follow come from publication PMC4819193.

By UniProt entry, the sequences of proteins in these tests, tags left out. Where a name states a change or a piece, a line headed by the entry shows the natural chain unless it says otherwise.
UniProt F8SNQ6: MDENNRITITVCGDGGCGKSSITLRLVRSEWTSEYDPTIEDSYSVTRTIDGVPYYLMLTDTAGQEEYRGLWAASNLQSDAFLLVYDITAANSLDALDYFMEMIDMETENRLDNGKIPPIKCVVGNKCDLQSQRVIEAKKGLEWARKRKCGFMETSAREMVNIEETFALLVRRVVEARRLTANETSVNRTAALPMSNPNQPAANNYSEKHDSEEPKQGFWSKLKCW
UniProt A0A0U2WZR5: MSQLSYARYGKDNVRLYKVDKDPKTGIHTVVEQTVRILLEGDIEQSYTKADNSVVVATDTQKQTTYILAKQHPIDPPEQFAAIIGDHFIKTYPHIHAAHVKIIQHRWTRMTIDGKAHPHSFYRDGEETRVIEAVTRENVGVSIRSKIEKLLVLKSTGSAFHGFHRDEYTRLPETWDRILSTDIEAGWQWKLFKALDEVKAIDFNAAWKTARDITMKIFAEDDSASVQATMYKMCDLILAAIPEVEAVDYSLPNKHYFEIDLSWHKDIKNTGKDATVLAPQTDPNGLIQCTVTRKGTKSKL

These are yes or no findings as the source states them, for the method shown. Binding calls can cover weak binding; strength is not graded here.

The target of this test is GST-Clg2p (Curvularia lunata) (UniProt F8SNQ6). Put plainly: pull-down; both purified.

In the case of His-ClUrase (from UniProt A0A0U2WZR5), the binding entry is recorded as “binds”.
